Laboratory results reported in article PMC10372749.
These are yes or no findings as the source states them, for the method shown. Binding seen in cells or lysates may run through a third protein. Some results given as binding are weak or reduced against the parent protein; the word gives no strength. Where a sequence is shown, tags or fusion partners need not be part of it.

Amino acid sequences for entries named in this document (tags omitted).
UniProt A5YKK6: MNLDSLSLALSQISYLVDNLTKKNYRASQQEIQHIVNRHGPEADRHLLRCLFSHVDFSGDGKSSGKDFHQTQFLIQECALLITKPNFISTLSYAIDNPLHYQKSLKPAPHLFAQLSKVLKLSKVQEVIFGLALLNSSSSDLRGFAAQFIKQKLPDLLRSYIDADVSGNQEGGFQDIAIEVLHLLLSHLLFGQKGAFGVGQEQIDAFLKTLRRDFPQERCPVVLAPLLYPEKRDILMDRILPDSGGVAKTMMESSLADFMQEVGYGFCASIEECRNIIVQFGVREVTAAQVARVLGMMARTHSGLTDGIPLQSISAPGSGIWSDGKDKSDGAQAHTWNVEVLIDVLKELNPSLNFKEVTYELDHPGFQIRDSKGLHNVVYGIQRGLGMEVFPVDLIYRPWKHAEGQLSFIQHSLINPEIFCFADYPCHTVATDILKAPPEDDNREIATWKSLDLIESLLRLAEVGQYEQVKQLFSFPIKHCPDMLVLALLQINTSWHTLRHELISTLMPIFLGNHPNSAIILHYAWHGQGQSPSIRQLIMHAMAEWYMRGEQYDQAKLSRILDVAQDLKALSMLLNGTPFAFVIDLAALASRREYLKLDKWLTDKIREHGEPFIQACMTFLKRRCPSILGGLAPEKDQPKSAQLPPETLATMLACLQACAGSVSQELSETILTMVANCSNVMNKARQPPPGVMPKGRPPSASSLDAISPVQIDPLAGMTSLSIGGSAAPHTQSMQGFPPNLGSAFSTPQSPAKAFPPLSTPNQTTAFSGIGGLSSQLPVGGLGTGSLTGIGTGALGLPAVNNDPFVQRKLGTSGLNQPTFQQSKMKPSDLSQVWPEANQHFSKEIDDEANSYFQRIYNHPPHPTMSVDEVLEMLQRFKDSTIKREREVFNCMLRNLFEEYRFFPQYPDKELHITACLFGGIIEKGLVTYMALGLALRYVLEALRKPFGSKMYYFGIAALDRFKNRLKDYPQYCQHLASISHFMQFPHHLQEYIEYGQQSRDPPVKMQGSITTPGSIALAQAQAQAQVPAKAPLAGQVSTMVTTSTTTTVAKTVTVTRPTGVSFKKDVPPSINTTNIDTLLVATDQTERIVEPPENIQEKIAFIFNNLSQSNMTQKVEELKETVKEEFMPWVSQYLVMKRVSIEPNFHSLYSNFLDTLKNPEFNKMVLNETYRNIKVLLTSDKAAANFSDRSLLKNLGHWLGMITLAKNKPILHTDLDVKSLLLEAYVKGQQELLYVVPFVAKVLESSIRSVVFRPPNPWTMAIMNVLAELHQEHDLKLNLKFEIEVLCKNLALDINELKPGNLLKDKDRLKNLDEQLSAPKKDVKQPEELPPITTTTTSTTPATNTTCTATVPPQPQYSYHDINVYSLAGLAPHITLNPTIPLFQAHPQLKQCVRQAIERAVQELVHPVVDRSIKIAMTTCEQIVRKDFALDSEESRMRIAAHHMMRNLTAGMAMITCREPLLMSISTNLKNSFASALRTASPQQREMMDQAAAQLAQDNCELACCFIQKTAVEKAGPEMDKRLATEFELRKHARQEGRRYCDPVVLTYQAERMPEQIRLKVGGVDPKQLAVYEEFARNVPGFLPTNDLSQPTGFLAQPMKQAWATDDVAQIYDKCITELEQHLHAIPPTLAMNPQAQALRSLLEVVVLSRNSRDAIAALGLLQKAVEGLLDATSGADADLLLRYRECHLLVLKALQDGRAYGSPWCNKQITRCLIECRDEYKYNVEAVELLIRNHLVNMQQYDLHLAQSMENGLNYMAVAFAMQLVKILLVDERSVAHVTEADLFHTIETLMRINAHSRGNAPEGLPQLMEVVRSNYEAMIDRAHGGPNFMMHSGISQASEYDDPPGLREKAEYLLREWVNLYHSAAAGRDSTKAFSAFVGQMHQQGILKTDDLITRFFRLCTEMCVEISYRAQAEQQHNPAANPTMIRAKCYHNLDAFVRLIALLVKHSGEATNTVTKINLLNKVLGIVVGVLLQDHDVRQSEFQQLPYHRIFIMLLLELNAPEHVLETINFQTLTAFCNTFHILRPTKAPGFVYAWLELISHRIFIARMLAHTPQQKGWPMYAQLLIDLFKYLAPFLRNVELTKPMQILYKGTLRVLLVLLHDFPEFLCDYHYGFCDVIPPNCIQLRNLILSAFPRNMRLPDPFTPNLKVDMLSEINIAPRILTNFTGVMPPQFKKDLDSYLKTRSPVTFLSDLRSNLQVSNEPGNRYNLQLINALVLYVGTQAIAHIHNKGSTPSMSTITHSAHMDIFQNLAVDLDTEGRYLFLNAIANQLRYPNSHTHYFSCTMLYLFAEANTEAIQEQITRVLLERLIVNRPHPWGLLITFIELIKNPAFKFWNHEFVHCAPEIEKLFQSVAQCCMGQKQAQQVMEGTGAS
UniProt Q9H9A5: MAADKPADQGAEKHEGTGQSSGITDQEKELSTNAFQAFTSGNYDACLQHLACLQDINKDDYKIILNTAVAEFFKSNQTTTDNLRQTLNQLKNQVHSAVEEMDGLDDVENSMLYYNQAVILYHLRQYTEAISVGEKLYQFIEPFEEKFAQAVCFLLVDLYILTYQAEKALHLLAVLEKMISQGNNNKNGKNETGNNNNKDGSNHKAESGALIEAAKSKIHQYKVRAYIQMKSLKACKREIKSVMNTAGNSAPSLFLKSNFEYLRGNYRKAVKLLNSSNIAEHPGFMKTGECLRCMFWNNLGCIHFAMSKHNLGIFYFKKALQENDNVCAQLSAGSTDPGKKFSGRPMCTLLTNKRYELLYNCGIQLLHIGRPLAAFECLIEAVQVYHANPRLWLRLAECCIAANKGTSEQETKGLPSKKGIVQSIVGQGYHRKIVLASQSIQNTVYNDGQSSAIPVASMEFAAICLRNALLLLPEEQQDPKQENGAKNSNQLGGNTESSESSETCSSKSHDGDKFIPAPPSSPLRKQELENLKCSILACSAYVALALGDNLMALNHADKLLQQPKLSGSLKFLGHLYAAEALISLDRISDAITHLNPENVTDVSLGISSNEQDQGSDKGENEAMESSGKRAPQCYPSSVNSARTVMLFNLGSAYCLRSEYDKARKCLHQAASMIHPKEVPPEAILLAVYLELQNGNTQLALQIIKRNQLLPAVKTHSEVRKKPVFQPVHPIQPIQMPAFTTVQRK

Target: T1, EBV early gene product BRRF1, HA-tagged (pLIX402-BRRF1) (Epstein-Barr virus (type I)) (UniProt P03207)
T1 sequence: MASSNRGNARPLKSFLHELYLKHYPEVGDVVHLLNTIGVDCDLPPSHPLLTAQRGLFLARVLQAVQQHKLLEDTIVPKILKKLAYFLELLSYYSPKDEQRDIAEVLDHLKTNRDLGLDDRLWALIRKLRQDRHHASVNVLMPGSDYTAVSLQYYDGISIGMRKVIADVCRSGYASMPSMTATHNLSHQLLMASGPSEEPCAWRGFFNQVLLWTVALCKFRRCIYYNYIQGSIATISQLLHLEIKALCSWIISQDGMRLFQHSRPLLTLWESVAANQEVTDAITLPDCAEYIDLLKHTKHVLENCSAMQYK
Test: co-IP; anti-HA complexes from P3HR-1 expressing BRRF1 cDNA, immunoblot, n = 3

| Substance | binding |
| --- | --- |
| CCR4/NOT complex member CNOT1, endogenous (from UniProt A5YKK6 1-2376) | binds |
| CCR4/NOT complex member CNOT10, endogenous (from UniProt Q9H9A5 1-744) | binds |
